# Results published in publication PMC6547726, “Advanced FRET normalization allows quantitative analysis of protein interactions including stoichiometries and relative affinities in living cells” (Scientific Reports, 2019).
# No constants are given. Whether binding was seen depends on the method and setting. Binding seen in cells or lysates may run through a third protein. Some results given as binding are weak or reduced against the parent protein; the word gives no strength. Tags and fused reporters may be left off the sequences shown.
# T1: YFP-tagged IKKα (UniProt O15111 1-745)
# T1 construct: IKKα, IKK subunit α of the NF-kappaB pathway; FRET donor; also called IKK subunit α; source: HeLa cells (clone ACC 57), transfected, in living cells
# T1 sequence (looked up): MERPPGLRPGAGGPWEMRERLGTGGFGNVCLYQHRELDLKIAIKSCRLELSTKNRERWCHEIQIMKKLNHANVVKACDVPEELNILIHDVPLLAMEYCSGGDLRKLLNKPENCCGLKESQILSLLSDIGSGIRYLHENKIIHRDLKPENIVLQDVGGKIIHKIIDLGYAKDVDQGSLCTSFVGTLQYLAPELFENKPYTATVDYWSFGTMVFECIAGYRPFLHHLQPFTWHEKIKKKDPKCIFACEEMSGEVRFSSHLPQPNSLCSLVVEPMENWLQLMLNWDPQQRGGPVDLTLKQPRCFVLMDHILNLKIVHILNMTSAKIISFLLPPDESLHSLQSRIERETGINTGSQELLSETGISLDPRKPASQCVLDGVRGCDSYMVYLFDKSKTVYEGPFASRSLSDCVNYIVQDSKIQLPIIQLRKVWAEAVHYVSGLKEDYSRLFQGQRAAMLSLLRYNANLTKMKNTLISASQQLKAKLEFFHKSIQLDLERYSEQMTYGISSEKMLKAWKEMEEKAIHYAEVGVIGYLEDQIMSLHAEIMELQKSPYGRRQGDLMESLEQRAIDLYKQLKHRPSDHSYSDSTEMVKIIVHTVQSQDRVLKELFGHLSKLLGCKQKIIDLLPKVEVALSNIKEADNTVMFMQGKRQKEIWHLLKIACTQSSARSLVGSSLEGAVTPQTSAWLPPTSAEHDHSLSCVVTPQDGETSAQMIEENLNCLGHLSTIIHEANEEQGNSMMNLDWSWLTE
# B1: mCherry-tagged IKKβ (natural protein, UniProt O14920 1-756, looked up)
# chain: MSWSPSLTTQTCGAWEMKERLGTGGFGNVIRWHNQETGEQIAIKQCRQELSPRNRERWCLEIQIMRRLTHPNVVAARDVPEGMQNLAPNDLPLLAMEYCQGGDLRKYLNQFENCCGLREGAILTLLSDIASALRYLHENRIIHRDLKPENIVLQQGEQRLIHKIIDLGYAKELDQGSLCTSFVGTLQYLAPELLEQQKYTVTVDYWSFGTLAFECITGFRPFLPNWQPVQWHSKVRQKSEVDIVVSEDLNGTVKFSSSLPYPNNLNSVLAERLEKWLQLMLMWHPRQRGTDPTYGPNGCFKALDDILNLKLVHILNMVTGTIHTYPVTEDESLQSLKARIQQDTGIPEEDQELLQEAGLALIPDKPATQCISDGKLNEGHTLDMDLVFLFDNSKITYETQISPRPQPESVSCILQEPKRNLAFFQLRKVWGQVWHSIQTLKEDCNRLQQGQRAAMMNLLRNNSCLSKMKNSMASMSQQLKAKLDFFKTSIQIDLEKYSEQTEFGITSDKLLLAWREMEQAVELCGRENEVKLLVERMMALQTDIVDLQRSPMGRKQGGTLDDLEEQARELYRRLREKPRDQRTEGDSQEMVRLLLQAIQSFEKKVRVIYTQLSKTVVCKQKALELLPKVEEVVSLMNEDEKTVVRLQEKRQKELWNLLKIACSKVRGPVSGSPDSMNASRLSQPGQLMSQPSTASNSLPEPAKKSEELVAEAHNLCTLLENAIQDTVREQDQSFTALDWSWLQTEEEEHSCLEQAS
# notes: IKKβ, IKK subunit β of the NF-kappaB pathway; FRET acceptor; also called IKK subunit β; source: HeLa cells (clone ACC 57), transfected, in living cells
# Biological target: T1, YFP-tagged IKKα
# Experiment: FRET or BRET; 3-filter (sensitized emission) FRET by laser scanning confocal microscopy of living transfected HeLa cells; donor YFP, acceptor mCherry; FRET^C, N_FRET and DFRET of single cells over acceptor to donor ratios
binder,measurement,value
B1,binding,binds
